Data source: PubChem BioAssay AID1224826 (NIAID, 2016)

Aim: 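Regulators of Tlr4 signalling leading to Tnf-alpha expression in macrophages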 (primary screen)
Cell system: RAW264.7 G9 macrophages from mouse bearing reporters for p65 (GFP) and the Tnf promoter (mCherry)
Reagent: siRNA pool against mouse genes, 100 nM
Timing: 16 h of LPS stimulation, after 2 days of siRNA transfection
Conditions: bacterial lipopolysaccharide (Salmonella minnesota R595), 10 ng/ml
Read-out: 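Nuclear mCherry signal of the Tnf promoter reporter measured by imaging after background removal, scaled to each plate median and turned into robust z-scores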
Direction: Tnf reporter robust z-score: higher = stronger Tnf promoter reporter signal after LPS
Rule for the call: 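a well counts as active at a score of -1.3 or below (Tlr4 knock-down control median) or above 3 (raised signal); controls and wells holding fewer than 50 cells are excluded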
Meaning of the calls: active = Tnf reporter clearly lowered or raised; inactive = no clear change in Tnf reporter
This is one part, drawn at random, of about 17,000 deposited reagents. Of all reagents, about 1,110 (6.6%) were called active. 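Active means lowered or raised reporter signal; replicate intensities are raw and not normalised per plate.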 Further read-outs or replicates are left out here.

With Il23a, how do the results read?
Tnf reporter robust z-score: 1.27; fewer than 50 cells in well: enough cells in well; call: inactive

Which result is listed for Kif4?
Tnf reporter robust z-score: -0.5; fewer than 50 cells in well: enough cells in well; call: inactive

What is on record for Mrps22?
Tnf reporter robust z-score: -1.69; fewer than 50 cells in well: enough cells in well; call: active

How did the screen score Slc46a3?
Tnf reporter robust z-score: -0.26; fewer than 50 cells in well: enough cells in well; call: inactive

For Parvb, what was measured?
Tnf reporter robust z-score: -0.65; fewer than 50 cells in well: enough cells in well; call: inactive

What is on record for H1f8?
Tnf reporter robust z-score: -0.88; fewer than 50 cells in well: enough cells in well; call: inactive

With Or52e5, how do the results read?
Tnf reporter robust z-score: -0.49; fewer than 50 cells in well: enough cells in well; call: inactive

For Abhd16a, how do the results read?
Tnf reporter robust z-score: 1.35; fewer than 50 cells in well: enough cells in well; call: inactive

With Spam1, how do the results read?
Tnf reporter robust z-score: -0.11; fewer than 50 cells in well: enough cells in well; call: inactive

For F2rl1, how do the results read?
Tnf reporter robust z-score: -0.82; fewer than 50 cells in well: enough cells in well; call: inactive

How did the screen score Papolg?
Tnf reporter robust z-score: -0.1; fewer than 50 cells in well: enough cells in well; call: inactive

What is on record for Ttc39b?
Tnf reporter robust z-score: 0.36; fewer than 50 cells in well: enough cells in well; call: inactive

What is on record for Sirt1?
Tnf reporter robust z-score: -1.2; fewer than 50 cells in well: enough cells in well; call: inactive

Which result is listed for Angptl2?
Tnf reporter robust z-score: 1.63; fewer than 50 cells in well: enough cells in well; call: inactive

For Snai1, what does the deposit list?
Tnf reporter robust z-score: -0.42; fewer than 50 cells in well: enough cells in well; call: inactive

For Irak1, what does the deposit list?
Tnf reporter robust z-score: 1.59; fewer than 50 cells in well: enough cells in well; call: inactive

Which result is listed for Abcg8?
Tnf reporter robust z-score: 0.39; fewer than 50 cells in well: enough cells in well; call: inactive

For Ahsg, what does the deposit list?
Tnf reporter robust z-score: -0.98; fewer than 50 cells in well: enough cells in well; call: inactive

Which result is listed for Wdr83?
fewer than 50 cells in well: fewer than 50 cells per well; well left out of calls; call: inactive

What is on record for Ccdc86?
Tnf reporter robust z-score: 1.17; fewer than 50 cells in well: enough cells in well; call: inactive

For Hars1, what does the deposit list?
Tnf reporter robust z-score: -0.53; fewer than 50 cells in well: enough cells in well; call: inactive

How did the screen score Steap4?
fewer than 50 cells in well: fewer than 50 cells per well; well left out of calls; call: inactive

With Prokr2, what does the deposit list?
Tnf reporter robust z-score: -0.09; fewer than 50 cells in well: enough cells in well; call: inactive

What is on record for Il18r1?
Tnf reporter robust z-score: -0.6; fewer than 50 cells in well: enough cells in well; call: inactive

For Vnn1, what does the deposit list?
Tnf reporter robust z-score: 0.59; fewer than 50 cells in well: enough cells in well; call: inactive

With Hnf4a, what does the deposit list?
Tnf reporter robust z-score: -0.2; fewer than 50 cells in well: enough cells in well; call: inactive

What did the screen give for Frat1?
Tnf reporter robust z-score: 0.16; fewer than 50 cells in well: enough cells in well; call: inactive

Ordered by “Tnf reporter robust z-score” (high to low): 3 of the entries above.
Abhd16a | Tnf reporter robust z-score = 1.35; fewer than 50 cells in well = enough cells in well; call = inactive
Or52e5 | Tnf reporter robust z-score = -0.49; fewer than 50 cells in well = enough cells in well; call = inactive
H1f8 | Tnf reporter robust z-score = -0.88; fewer than 50 cells in well = enough cells in well; call = inactive
